Measured values published in PubChem BioAssay AID540276 (National Center for Advancing Translational Sciences (NCATS), 2011).
Hit rate of the full screen: of about 300,000 compounds, about 5,400 (1.8%) were called active. The shares of active, inactive and inconclusive entries below differ from those in the screen. Calls follow the shape of the full dose curve; tested in HEK293 cells. Where the call is inconclusive, the potency comes from a doubtful curve fit.

experiment: qHTS for inhibitors of binding or entry into cells for Marburg Virus; settings: Marburg virus pseudotyped entry inhibition, cell reporter; activity change, negative = inhibition: at 37.8 µM (top of the series) unless noted
% is scaled to controls: 0 for no effect and ±100 for the full control effect; potency is read from the fitted curve at half-maximal effect.

SMILES | activity change, negative = inhibition | Potency
Cc1nn(-c2ccccc2)c(C)c1NC(=O)COC(=O)Cc1ccccc1F | inactive: 24.2% | –
CC(=O)N1c2ccc(S(=O)(=O)N3CCC(C(=O)N4CCN(c5cc(Cl)ccc5C)CC4)CC3)cc2CC1C (stereo unspecified) | – | inconclusive: 2.24 µM [inhibitor, full curve, poor fit]
O=C(COc1ccc(Cl)cc1Cl)N/N=C1\CCCc2ccccc21 | inactive: -5.69% | –
CC12CCC(C3NC(=S)NN=C31)C2(C)C (stereo unspecified) | – | inconclusive: 6.31 µM [inhibitor, single point]
O=C(Nc1cc(Sc2nc3ccccc3s2)cc([N+](=O)[O-])c1)c1ccccc1F | – | inconclusive: 35.5 µM [inhibitor, single point]
CCCC(=O)Nc1ccc(-c2nc3cc(C)c(C)cc3o2)c(O)c1 | – | inconclusive: 6.31 µM [activator, single point]
Nc1ccc(-c2nnn(Cc3ccccc3)n2)cc1 | – | inconclusive: 6.31 µM [activator, single point]
COCC(=O)Nc1nc2ccc(C)cc2s1 | – | inconclusive: 2.31 µM [inhibitor, partial curve, poor fit]
CCOC(=O)/C=C1\SCC(=O)N1CC(=O)NCCc1ccc(F)cc1 | – | inconclusive: 5.62 µM [activator, single point]
COc1ccccc1C1NC=C([N+](=O)[O-])C=C1[N+](=O)[O-] (stereo unspecified) | – | inconclusive: 2.59 µM [inhibitor, partial curve, poor fit]
Cc1cccc2c(C(=O)O)cc(-c3cccnc3)nc12 | inactive: 8.09% [at 46.1 µM] | –
COC(=O)c1ccc(C2C(Oc3ccccc3)C(=O)N2CCc2ccc(F)cc2)cc1 (stereo unspecified) | – | inconclusive: 20.6 µM [inhibitor, partial curve, poor fit]
COc1ccccc1C1CC(c2ccccc2)Nc2ncnn21 (stereo unspecified) | inactive: -17.4% | –
Cc1ccc(N(CC(=O)NCc2ccccc2)C(=O)CCC(=O)Nc2ccccn2)cc1C | – | inconclusive: 15.8 µM [inhibitor, single point]
O=C(CCCn1c(=O)c2sccc2n(Cc2ccc(F)cc2)c1=O)NCc1ccco1 | – | inconclusive: 32.6 µM [inhibitor, single point]
CC(=Nc1ccc(C)c(C)c1)C1=C(O)CSC1=O | inactive: 14.1% [at 46.1 µM] | –
O=c1c2c3c(sc2nc2n1CCCC2)CCC3 | inactive: 2.48% | –
COc1ccc(NC(=O)CCCN(C)S(=O)(=O)c2ccc(C)cc2)cc1 | – | inconclusive: 6.51 µM [inhibitor, single point]
Cn1c(=O)n(-c2cccc(Cl)c2)c(=O)c2sc3ccccc3c21 | – | inconclusive: 5.62 µM [activator, single point]
CN(C)CCNC(=O)/C(=C/c1ccc(-c2cccc(Cl)c2)o1)NC(=O)c1ccccc1 | – | active: 8.2 µM
Cn1c(Sc2ccc(C(=O)O)cc2[N+](=O)[O-])nnc1-c1ccccc1 | – | inconclusive: 1.26 µM [activator, full curve, poor fit]
CCOP(=O)(OCC)c1nc(-c2ccc(C)cc2)oc1NCc1ccccc1 | – | inconclusive: 35.5 µM [inhibitor, partial curve, poor fit]
Cc1nnc2n(-c3ccccc3)c(=O)c3c4c(sc3n12)COC(C)(C)C4 | inactive: 18.3% | –

Copied from the list.
activity change, negative = inhibition, `COc1ccccc1C1CC(c2ccccc2)Nc2ncnn21` (stereo unspecified) reads inactive: -17.4%
Potency, `CCOC(=O)/C=C1\SCC(=O)N1CC(=O)NCCc1ccc(F)cc1` reads inconclusive: 5.62 µM [activator, single point]

Carrying on.

SMILES | activity change, negative = inhibition | Potency
CC(C)(C)n1nnnc1C(c1cccnc1)N1CCN(c2ccccc2)CC1 (stereo unspecified) | inactive: 9.27% | –
O=C(CSCc1ccccc1F)NCc1ccc(F)cc1 | inactive: 5.21% [at 46.1 µM] | –
Cn1nc(C(=O)OCC(=O)Nc2ccc(C(N)=O)cc2)c2ccccc2c1=O | inactive: -3.92% | –
O=C(NCc1ccncc1)c1c(F)c(F)c(F)c(F)c1F | – | inconclusive: 35.5 µM [inhibitor, single point]
O=c1[nH]c2cc3c(cc2cc1CN(Cc1ccco1)C(=S)NCC1CCCO1)OCCO3 (stereo unspecified) | – | inconclusive: 16.4 µM [inhibitor, partial curve, poor fit]
NC(N)=N/N=C(\N=Nc1ccccc1)c1ccc(Cl)cc1 | – | inconclusive: 1.26 µM [activator, partial curve]
COC(=O)NCc1c(C)nn(-c2ccccc2)c1-n1cccc1 | inactive: 21.2% [at 46.1 µM] | –
O=C(c1cccc(S(=O)(=O)N2CCCC2)c1)N1CCCC(C(F)(F)F)C1 (stereo unspecified) | inactive: 4.96% | –
Cc1ccc(SCC(=O)NNC(=O)c2cncc(Br)c2)cc1 | – | inconclusive: 1.26 µM [inhibitor, single point]
CCCN1CCC[C@@H]2Cc3n[nH]cc3C[C@H]21 | inactive: 1.77% | –
CC1CCCCC1NC(=O)COC(=O)c1cc(=O)[nH]c2ccccc12 (stereo unspecified) | inconclusive: 19.5% [activator] | –
Cc1cc(C(=O)N/N=C/c2cccn2C)n[nH]1 | – | inconclusive: 6.31 µM [activator, partial curve]
O=C(CSCc1ccccc1F)NCc1ccccc1 | – | inconclusive: 10 µM [activator, partial curve]
c1ccc2c(CN3CCCCCCC3)c[nH]c2c1 | – | inconclusive: 20 µM [inhibitor, single point]
CSc1nccc(Oc2cncc(Cl)c2)n1 | – | inconclusive: 0.794 µM [activator, full curve, poor fit]
NC(C(=O)O)C1ON=C(Cl)C1O (stereo unspecified) | inactive: -1.83% | –
O=C(Nc1cc([N+](=O)[O-])ccc1F)c1ccc2ccccc2c1 | – | inconclusive: 35.5 µM [inhibitor, single point]
COc1cc(N2CCCC2)c(OC)cc1C=O | inactive: -7.92% | –
Cc1ccc2c(c1)C1NC(=S)NC(C)(O2)C1C(=O)Nc1ccc(Cl)cc1 (stereo unspecified) | – | inconclusive: 35.5 µM [inhibitor, single point]
c1ccc2sc(-c3ccc4c(c3)OCO4)nc2c1 | – | inconclusive: 29.1 µM [inhibitor, single point]
CCOC(=O)c1c(NC(=O)CSc2nnc(-c3c[nH]c4ccccc34)n2CCOC)sc2c1CCCCC2 | – | inconclusive: 25.9 µM [inhibitor, single point]
O=C(CN1CCN(S(=O)(=O)c2ccc(Br)cc2)CC1)Nc1ccc(F)cc1 | – | inconclusive: 20 µM [inhibitor, single point]
CCOC(=O)C1CCN(S(=O)(=O)c2ccc(-c3nc4ccccc4s3)s2)CC1 | – | inconclusive: 6.31 µM [activator, partial curve, poor fit]
